The text below walks through data of paper PMC5750225.

Chains of the proteins cited; added tags and fusions are not shown.
UniProt P11940, whole entry: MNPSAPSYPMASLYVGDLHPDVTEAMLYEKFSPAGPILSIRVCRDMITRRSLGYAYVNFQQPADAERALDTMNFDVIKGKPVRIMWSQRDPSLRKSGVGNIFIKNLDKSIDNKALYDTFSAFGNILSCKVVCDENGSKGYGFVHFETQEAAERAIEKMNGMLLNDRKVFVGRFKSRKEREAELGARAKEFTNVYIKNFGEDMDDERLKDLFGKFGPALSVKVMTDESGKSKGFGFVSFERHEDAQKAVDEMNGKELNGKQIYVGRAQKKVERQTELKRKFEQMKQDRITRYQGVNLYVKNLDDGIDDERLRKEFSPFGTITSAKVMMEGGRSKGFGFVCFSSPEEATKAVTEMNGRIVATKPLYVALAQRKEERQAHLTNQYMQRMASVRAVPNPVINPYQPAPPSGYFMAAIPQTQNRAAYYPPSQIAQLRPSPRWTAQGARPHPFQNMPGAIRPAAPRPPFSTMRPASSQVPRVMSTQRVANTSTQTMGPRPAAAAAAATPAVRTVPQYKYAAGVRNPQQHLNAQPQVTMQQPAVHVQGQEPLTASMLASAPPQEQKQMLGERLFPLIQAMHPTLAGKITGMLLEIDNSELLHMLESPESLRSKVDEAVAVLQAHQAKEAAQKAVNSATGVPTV

The exact form of at least one protein or probe is not confirmed. At least one result comes from cells or an extract, where the contact may be indirect. For part of these data: No signal at the amounts used counts as a negative.

Series [1] deals with PABP (endogenous, U2OS cytoplasmic/whole-cell lysate) (UniProt P11940). The experiment in a line: EMSA. Conditions: 2'-O-methyl throughout, EMSA: 10 mM HEPES pH 7.4, 50 mM NaCl, 1 mM EDTA, 0.1 mg/mL BSA, 0.01% Tween-20, 0.1 mg/mL yeast tRNA, on ice, protein in an extract, synthetic backbone. (In general: Mobility shift assays separate free from complexed probe on a gel.)
Series [2] shares this target. The experiment in a line: biotin pull-down with PABP immunoblot. The following applies: diminished in PABP-depleted lysate, 2'-O-methyl throughout, phosphorothioate at the 5' and 3' terminal linkages, Pull-down: lysate in 50 mM Tris pH 8, 1 mM EDTA, 2 mM MgCl2, 150 mM NaCl, 0.5% NP40, on ice then 4 °C, protein in an extract, label: 3' biotin, synthetic backbone. Background: In western blotting, separated proteins are transferred to a membrane and probed.

AAAAAAAAAAAA [Poly(A) SPOT-ON]: in series [1] (band greatly reduced (53%) on PAIP depletion of PABP, phosphorothioate at the 5' and 3' terminal linkages (A*AAAAAAAAAA*A)), the binding result was “binds”.

Take UAACAAAAUAAU [scramble SPOT-ON]: the binding result in series [1] (no clear binding to any species, phosphorothioate at the 5' and 3' terminal linkages (U*AACAAAAUAA*U)) is listed as “no binding”.

With “AAAAAAAAAAAA [Poly(A) SPOT-ON, 3' biotin]”, the binding result in series [2] is reported as “binds”.
